Assay results from paper PMC11858170.
Results are given in words; binding and its absence hold for the method and conditions named. In cells and extracts the contact can be indirect. Binding can be weak; no strength is given.

Biological target: T1, interleukin-4 receptor (IL-4 receptor α), rat (rat (endogenous in RBL2H3)) (UniProt Q63257)
T1 sequence: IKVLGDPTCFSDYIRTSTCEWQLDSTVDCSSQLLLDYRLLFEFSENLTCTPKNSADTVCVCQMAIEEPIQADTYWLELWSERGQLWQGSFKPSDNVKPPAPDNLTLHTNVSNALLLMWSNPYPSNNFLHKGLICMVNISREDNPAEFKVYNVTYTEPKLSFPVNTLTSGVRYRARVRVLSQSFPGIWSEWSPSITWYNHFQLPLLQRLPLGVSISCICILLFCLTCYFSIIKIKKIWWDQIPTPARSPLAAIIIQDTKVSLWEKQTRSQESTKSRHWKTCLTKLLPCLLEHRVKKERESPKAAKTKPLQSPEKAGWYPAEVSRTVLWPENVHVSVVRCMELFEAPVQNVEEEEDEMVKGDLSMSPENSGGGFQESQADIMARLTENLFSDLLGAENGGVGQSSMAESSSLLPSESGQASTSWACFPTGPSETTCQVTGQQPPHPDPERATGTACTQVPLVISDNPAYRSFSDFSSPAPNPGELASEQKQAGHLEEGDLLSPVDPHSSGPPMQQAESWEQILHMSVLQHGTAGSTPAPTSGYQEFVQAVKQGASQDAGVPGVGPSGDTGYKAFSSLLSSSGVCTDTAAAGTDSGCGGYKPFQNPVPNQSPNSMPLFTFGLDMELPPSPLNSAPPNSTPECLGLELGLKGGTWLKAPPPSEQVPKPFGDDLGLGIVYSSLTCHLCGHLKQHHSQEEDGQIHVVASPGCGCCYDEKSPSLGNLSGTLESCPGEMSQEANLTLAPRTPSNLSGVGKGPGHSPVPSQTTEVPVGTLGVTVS
Assay: co-IP; lysates of DNP-specific IgE-sensitized RBL2H3 cells, stimulated with DNP-HSA, without or with Roc-A (1 μM, 2 h) or chemical 1536801 (5 μM, 2 h); lysis buffer 50 mM Tris-HCl pH 6.8, 150 mM NaCl, 1% NP-40, 50 mM dithiothreitol; immunoprecipitation and immunoblot; isotype-matched IgG as control; which protein was precipitated is not told

Q: With Janus kinase 1 (JAK1), rat (enzyme) as the substance, how does the binding read?
A: binds
